# According to the supplement of paper PMC8728848:
# This is one part of the list.
# B1: CM2 (Cordyceps militaris) (protein)
# chain: MEIAEQNVGKSCAIVNLIPPKEGSNIWTAKQVTIARNLPPNRGTGRHQIDWSFGPVKVTGYVDTTNWEIGVTVSIMGIDLGTVYGNLRDGVVLNVDLFLAKGQVRFYLKNGNEVWVHLSVEIRFDGKFEGDYKIITV
# Tests used:
# Experiment in all cases: glycan array binding signal (z-score within array); higher = stronger binding
# Conditions in all cases: glycan notation: IUPAC condensed, linker removed
# Gal(b1-4)Glc = molecular target: Gal(b1-4)Glc
# Outline: (§1)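 Negative Z-scores can be read as non-binding. The Z-score is calculated within each array and then averaged across arrays of one protein sequence at different concentrations or buffers and across linkers. Arrays, 3228 in all, were curated from the Consortium for Functional Glycomics database and kept only where the protein sequence was available.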
# Gal(b1-4)Glc6S = molecular target: Gal(b1-4)Glc6S
# Outline: as §1
# Gal(b1-4)GlcNAc = molecular target: Gal(b1-4)GlcNAc
# Outline: as §1
# [1] = molecular target: Gal(b1-4)GlcNAc(a1-6)Gal(b1-4)GlcNAc
# Outline: as §1
# Gal(b1-4)GlcNAc(b1-2)Man = molecular target: Gal(b1-4)GlcNAc(b1-2)Man
# Outline: as §1
# [2] = molecular target: Gal(b1-4)GlcNAc(b1-2)Man(a1-3)Man(b1-4)GlcNAc(b1-4)GlcNAc
# Outline: as §1
# [3] = molecular target: Gal(b1-4)GlcNAc(b1-2)Man(a1-3)[Gal(b1-4)GlcNAc(b1-2)Man(a1-6)]Man(b1-4)GlcNAc(b1-4)GlcNAc
# Outline: as §1
# [4] = molecular target: Gal(b1-4)GlcNAc(b1-2)Man(a1-3)[Gal(b1-4)GlcNAc(b1-2)Man(a1-6)]Man(b1-4)GlcNAc(b1-4)[Fuc(a1-6)]GlcNAc
# Outline: as §1
# [5] = molecular target: Gal(b1-4)GlcNAc(b1-2)Man(a1-3)[Gal(b1-4)GlcNAc(b1-2)Man(a1-6)][Gal(b1-4)GlcNAc(b1-4)]Man(b1-4)GlcNAc(b1-4)[Fuc(a1-6)]GlcNAc
# Outline: as §1
# [6] = molecular target: Gal(b1-4)GlcNAc(b1-2)Man(a1-3)[Gal(b1-4)GlcNAc(b1-2)Man(a1-6)][GlcNAc(b1-4)]Man(b1-4)GlcNAc(b1-4)[Fuc(a1-6)]GlcNAc
# Outline: as §1
# [7] = molecular target: Gal(b1-4)GlcNAc(b1-2)Man(a1-3)[GlcNAc(b1-2)Man(a1-6)]Man(b1-4)GlcNAc(b1-4)GlcNAc
# Outline: as §1
# [8] = molecular target: Gal(b1-4)GlcNAc(b1-2)Man(a1-3)[GlcNAc(b1-4)][Gal(b1-4)GlcNAc(b1-2)Man(a1-6)]Man(b1-4)GlcNAc(b1-4)GlcNAc
# Outline: as §1
# [9] = molecular target: Gal(b1-4)GlcNAc(b1-2)Man(a1-3)[Man(a1-6)]Man(b1-4)GlcNAc(b1-4)GlcNAc
# Outline: as §1
# [10] = molecular target: Gal(b1-4)GlcNAc(b1-2)Man(a1-6)Man(b1-4)GlcNAc(b1-4)GlcNAc
# Outline: as §1
# [11] = molecular target: Gal(b1-4)GlcNAc(b1-2)Man(a1-6)[GlcNAc(b1-2)Man(a1-3)]Man(b1-4)GlcNAc(b1-4)GlcNAc
# Outline: as §1
# [12] = molecular target: Gal(b1-4)GlcNAc(b1-2)Man(a1-6)[Man(a1-3)]Man(b1-4)GlcNAc(b1-4)GlcNAc
# Outline: as §1
# [13] = molecular target: Gal(b1-4)GlcNAc(b1-2)[Gal(b1-4)GlcNAc(b1-4)]Man(a1-3)[Gal(b1-4)GlcNAc(b1-2)Man(a1-6)]Man(b1-4)GlcNAc(b1-4)GlcNAc
# Outline: as §1
# [14] = molecular target: Gal(b1-4)GlcNAc(b1-2)[Gal(b1-4)GlcNAc(b1-4)]Man(a1-3)[Gal(b1-4)GlcNAc(b1-2)[Gal(b1-4)GlcNAc(b1-6)]Man(a1-6)]Man(b1-4)GlcNAc(b1-4)GlcNAc
# Outline: as §1
# [15] = molecular target: Gal(b1-4)GlcNAc(b1-2)[Gal(b1-4)GlcNAc(b1-4)]Man(a1-3)[GlcNAc(b1-4)][Gal(b1-4)GlcNAc(b1-2)Man(a1-6)]Man(b1-4)GlcNAc(b1-4)GlcNAc
# Outline: as §1
# [16] = molecular target: Gal(b1-4)GlcNAc(b1-2)[Gal(b1-4)GlcNAc(b1-4)]Man(a1-3)[GlcNAc(b1-4)][Gal(b1-4)GlcNAc(b1-2)[Gal(b1-4)GlcNAc(b1-6)]Man(a1-6)]Man(b1-4)GlcNAc(b1-4)GlcNAc
# Outline: as §1
# [17] = molecular target: Gal(b1-4)GlcNAc(b1-2)[Gal(b1-4)GlcNAc(b1-6)]Man(a1-6)[Gal(b1-4)GlcNAc(b1-2)Man(a1-3)]Man(b1-4)GlcNAc(b1-4)GlcNAc
# Outline: as §1
# [18] = molecular target: Gal(b1-4)GlcNAc(b1-2)[Gal(b1-4)GlcNAc(b1-6)]Man(a1-6)[Gal(b1-4)GlcNAc(b1-2)Man(a1-3)]Man(b1-4)GlcNAc(b1-4)[Fuc(a1-6)]GlcNAc
# Outline: as §1
binder,measurement,setting,value
B1,glycan array binding signal (z-score),Gal(b1-4)Glc,-0.962
same,glycan array binding signal (z-score),Gal(b1-4)Glc6S,0.021
same,glycan array binding signal (z-score),Gal(b1-4)GlcNAc,-0.076
same,glycan array binding signal (z-score),[1],-0.357
same,glycan array binding signal (z-score),Gal(b1-4)GlcNAc(b1-2)Man,0.653
same,glycan array binding signal (z-score),[2],-0.676
same,glycan array binding signal (z-score),[3],-1.28
same,glycan array binding signal (z-score),[4],1.93
same,glycan array binding signal (z-score),[5],-1.68
same,glycan array binding signal (z-score),[6],-1.17
same,glycan array binding signal (z-score),[7],-0.159
same,glycan array binding signal (z-score),[8],-1.07
same,glycan array binding signal (z-score),[9],-1.19
same,glycan array binding signal (z-score),[10],-0.699
same,glycan array binding signal (z-score),[11],-0.767
same,glycan array binding signal (z-score),[12],0.512
same,glycan array binding signal (z-score),[13],-1.42
same,glycan array binding signal (z-score),[14],-0.541
same,glycan array binding signal (z-score),[15],0.043
same,glycan array binding signal (z-score),[16],-1.63
same,glycan array binding signal (z-score),[17],-0.245
same,glycan array binding signal (z-score),[18],-0.7
